From publication PMC7368280
No constants are given. Whether binding was seen depends on the method and setting. Binding seen in cells or lysates may run through a third protein. These calls come from enrichment with a bait or labelling near it, and not all partners need be listed. For part of these data: A no says only that the protein was not detected with the bait. Sequences can lack the tags named with a protein.

T1: ICU11-3xHA (gICU11-HA in icu11-3) (Arabidopsis) (UniProt Q3ED68)
T1 sequence: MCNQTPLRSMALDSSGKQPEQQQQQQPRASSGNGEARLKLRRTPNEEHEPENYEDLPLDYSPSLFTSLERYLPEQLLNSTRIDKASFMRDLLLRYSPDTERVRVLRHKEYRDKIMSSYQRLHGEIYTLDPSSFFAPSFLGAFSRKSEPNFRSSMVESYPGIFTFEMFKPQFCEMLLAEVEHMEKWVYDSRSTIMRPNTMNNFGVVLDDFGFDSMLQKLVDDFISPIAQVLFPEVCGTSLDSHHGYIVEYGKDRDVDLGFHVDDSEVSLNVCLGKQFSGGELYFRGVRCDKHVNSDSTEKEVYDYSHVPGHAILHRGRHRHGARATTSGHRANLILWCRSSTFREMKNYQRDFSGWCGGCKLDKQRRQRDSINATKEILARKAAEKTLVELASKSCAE

T2: SWN-GFP (gSWN-GFP) (Arabidopsis) (UniProt Q9ZSM8)
T2 sequence: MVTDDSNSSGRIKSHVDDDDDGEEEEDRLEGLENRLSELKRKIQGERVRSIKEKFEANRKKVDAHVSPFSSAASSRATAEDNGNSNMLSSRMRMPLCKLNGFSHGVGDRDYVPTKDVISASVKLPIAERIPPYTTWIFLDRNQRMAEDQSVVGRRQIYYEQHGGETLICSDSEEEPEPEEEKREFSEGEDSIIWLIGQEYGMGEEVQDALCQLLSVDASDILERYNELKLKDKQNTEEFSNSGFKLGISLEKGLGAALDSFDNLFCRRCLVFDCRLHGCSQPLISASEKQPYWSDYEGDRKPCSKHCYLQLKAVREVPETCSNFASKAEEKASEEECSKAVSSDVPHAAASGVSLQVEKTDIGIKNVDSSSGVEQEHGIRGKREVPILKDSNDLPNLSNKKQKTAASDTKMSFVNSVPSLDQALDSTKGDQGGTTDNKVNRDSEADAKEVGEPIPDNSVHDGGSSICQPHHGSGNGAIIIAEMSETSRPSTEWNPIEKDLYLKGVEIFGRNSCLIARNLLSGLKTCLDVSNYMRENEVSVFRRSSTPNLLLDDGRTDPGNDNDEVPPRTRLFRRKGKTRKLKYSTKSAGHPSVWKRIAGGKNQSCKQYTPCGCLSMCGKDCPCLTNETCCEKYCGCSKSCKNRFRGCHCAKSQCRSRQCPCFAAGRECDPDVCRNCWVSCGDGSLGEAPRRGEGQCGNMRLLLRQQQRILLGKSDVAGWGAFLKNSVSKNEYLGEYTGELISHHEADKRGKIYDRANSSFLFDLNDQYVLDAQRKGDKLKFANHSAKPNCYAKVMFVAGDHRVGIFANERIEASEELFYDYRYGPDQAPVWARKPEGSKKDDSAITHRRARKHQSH

T3: GFP-CLF (35S:GFP-CLF in clf-50) (Arabidopsis) (UniProt P93831)
T3 sequence: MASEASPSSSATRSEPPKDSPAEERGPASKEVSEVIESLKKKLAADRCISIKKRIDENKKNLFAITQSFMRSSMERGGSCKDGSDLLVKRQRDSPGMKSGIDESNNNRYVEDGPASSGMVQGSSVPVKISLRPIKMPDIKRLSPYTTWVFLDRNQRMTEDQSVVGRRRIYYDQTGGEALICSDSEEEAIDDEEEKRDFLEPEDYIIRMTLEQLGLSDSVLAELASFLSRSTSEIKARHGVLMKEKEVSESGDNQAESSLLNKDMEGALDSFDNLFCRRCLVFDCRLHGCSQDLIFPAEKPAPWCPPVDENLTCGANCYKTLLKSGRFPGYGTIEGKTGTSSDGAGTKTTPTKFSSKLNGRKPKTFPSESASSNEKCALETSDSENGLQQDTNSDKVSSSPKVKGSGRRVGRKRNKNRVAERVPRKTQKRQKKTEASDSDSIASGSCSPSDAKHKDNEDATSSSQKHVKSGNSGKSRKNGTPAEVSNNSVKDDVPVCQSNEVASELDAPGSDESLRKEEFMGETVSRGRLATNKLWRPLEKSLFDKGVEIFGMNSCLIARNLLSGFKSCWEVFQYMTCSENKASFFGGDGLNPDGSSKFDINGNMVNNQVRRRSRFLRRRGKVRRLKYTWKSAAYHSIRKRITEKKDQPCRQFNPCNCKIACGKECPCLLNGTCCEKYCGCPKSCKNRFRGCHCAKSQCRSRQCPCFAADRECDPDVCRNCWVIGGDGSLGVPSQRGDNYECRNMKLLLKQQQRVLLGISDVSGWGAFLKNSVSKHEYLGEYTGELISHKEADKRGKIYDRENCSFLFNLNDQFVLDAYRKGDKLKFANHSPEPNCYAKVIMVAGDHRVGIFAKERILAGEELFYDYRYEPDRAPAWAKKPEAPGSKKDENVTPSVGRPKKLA

T4: ICU11-eGFP (gICU11-GFP in icu11-3) (Arabidopsis) (UniProt Q3ED68)
T4 sequence: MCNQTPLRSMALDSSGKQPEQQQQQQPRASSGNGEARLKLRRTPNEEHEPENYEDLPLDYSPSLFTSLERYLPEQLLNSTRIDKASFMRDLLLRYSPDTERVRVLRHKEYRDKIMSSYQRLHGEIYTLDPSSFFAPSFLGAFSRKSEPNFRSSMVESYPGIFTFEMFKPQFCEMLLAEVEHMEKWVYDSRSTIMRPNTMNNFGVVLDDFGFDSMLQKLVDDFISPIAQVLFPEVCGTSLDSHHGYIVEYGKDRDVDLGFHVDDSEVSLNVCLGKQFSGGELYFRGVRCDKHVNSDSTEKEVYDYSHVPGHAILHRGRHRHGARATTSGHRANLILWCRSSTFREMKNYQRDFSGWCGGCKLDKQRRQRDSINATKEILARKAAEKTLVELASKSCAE


Experiments:
[1] = biological target: T1, ICU11-3xHA (gICU11-HA in icu11-3) (Arabidopsis); assay: affinity purification with mass spectrometry; coIP-MS with 3xHA-tagged ICU11 as bait from Arabidopsis plants (gICU11-HA icu11-3), control icu11-3; two independent experiments; procedure in SI Appendix
[2] = biological target: T2, SWN-GFP (gSWN-GFP) (Arabidopsis); assay: affinity purification with mass spectrometry; coIP-MS with GFP-tagged baits from Arabidopsis plants (gICU11-GFP icu11-3; 35S:GFP-CLF clf-50; gSWN-GFP), control 35S::GFP; two independent experiments; procedure in SI Appendix
[3] = biological target: T3, GFP-CLF (35S:GFP-CLF in clf-50) (Arabidopsis); assay: as above
[4] = biological target: T4, ICU11-eGFP (gICU11-GFP in icu11-3) (Arabidopsis); assay: as above

Row | binding [1] | binding [2] | binding [3] | binding [4] | Binder
1 | no binding | binds | binds | no binding | VEL1 (protein, UniProt Q9SUM4 1-714) MDSSLDGAAGDSSKCSEMSVDEKRQLVYELSKQSHLAAEVLQAWSRQEILQILCAEMGKERKYTGLTKVKIIETLLKIVSEKNSGECEGKKRDSDCLPIQRNTKRQRKVDNPSRYVIPATNIVTSNNASGSCSSVNTKGESTTIYCKNLACRAVLRQEDSFCRRCSCCICRKYDDNKDPSLWLTCSSDPPFEGESCGFSCHLECAFNTEKSGLGKDKQSEGCCFYCVSCGKANSLLECWKKQLTIAKETRRVEVLCYRLFLVQKLLKSSTKYRNLCEVVDEAVKTLEADVGPLTGLPMKMGRGIVNRLHSGPDVQKLCSSALESLETIATTPPDVAALPSPRSSKMQQDCSYVLSNEISADTATTGSTKIRFEDVNATSLTVVLASNEIPSPPNIVHYSIWHRKVPEKDYPEKSTCTLFIPNTRFVVSGLAPASEYCFKVVSYSGTREMGVDEINVLTRSAEEGANCSSAVERSVSPLTNCSTLSSNPSSVEAESNNDYIVPKKPSSKNEDNNSPSVDESAAKRMKRTTDSDIVQIEKDVEQIVLLDDEEQEAVLDKTESETPVVVTTKSLVGNRNSSDASLPITPFRSDEIKNRQARIEISMKDNCNNGDHSANGGTESGLEHCVKIIRQLECSGHIDKNFRQKFLTWYSLRATSQEIRVVKIFIDTFIDDPMALAEQLIDTFDDRVSIKRSAVGGSGASAVVPSGFCMKLWH
2 | binds | binds | binds | binds | EMBRYONIC FLOWER 1 (EMF1), endogenous (protein, UniProt Q9LYD9 1-1096) MGSSIKINSISIDLAGAANEIDMVKCDHFSMRGFVAETRERDLRKCWPFSEESVSLVDQQSYTLPTLSVPKFRWWHCMSCIKDIDAHGPKDCGLHSNSKAIGNSSVIESKSKFNSLTIIDHEKEKKTDIADNAIEEKVGVNCENDDQTATTFLKKARGRPMGASNVRSKSRKLVSPEQVGNNRSKEKLNKPSMDISSWKEKQNVDQAVTTFGSSEIAGVVEDTPPKATKNHKGIRGLMECDNGSSESINLAMSGLQRRKSRKVRLLSELLGNTKTSGGSNIRKEESALKKESVRGRKRKLLPENNYVSRILSTMGATSENASKSCDSDQGNSESTDSGFDRTPFKGKQRNRRFQVVDEFVPSLPCETSQEGIKEHDADPSKRSTPAHSLFTGNDSVPCPPGTQRTERKLSLPKKKTKKPVIDNGKSTVISFSNGIDGSQVNSHTGPSMNTVSQTRDLLNGKRVGGLFDNRLASDGYFRKYLSQVNDKPITSLHLQDNDYVRSRDAEPNCLRDFSSSSKSSSGGWLRTGVDIVDFRNNNHNTNRSSFSNLKLRYPPSSTEVADLSRVLQKDASGADRKGKTVMVQEHHGAPRSQSHDRKETTTEEQNNDDIPMEIVELMAKNQYERCLPDKEEDVSNKQPSQETAHKSKNALLIDLNETYDNGISLEDNNTSRPPKPCSSNARREEHFPMGRQQNSHDFFPISQPYVPSPFGIFPPTQENRASSIRFSGHNCQWLGNLPTVGNQNPSPSSFRVLRACDTCQSVPNQYREASHPIWPSSMIPPQSQYKPVSLNINQSTNPGTLSQASNNENTWNLNFVAANGKQKCGPNPEFSFGCKHAAGVSSSSSRPIDNFSSESSIPALHLLSLLDPRLRSTTPADQHGNTKFTKRHFPPANQSKEFIELQTGDSSKSAYSTKQIPFDLYSKRFTQEPSRKSFPITPPIGTSSLSFQNASWSPHHQEKKTKRKDTFAPVYNTHEKPVFASSNDQAKFQLLGASNSMMLPLKFHMTDKEKKQKRKAESCNNNASAGPVKNSSGPIVCSVNRNPADFTIPEPGNVYMLTGEHLKVRKRTTFKKKPAVCKQDAMKQTKKPVCPPTQNA
3 | no binding | binds | binds | no binding | VERNALIZATION5 (protein, UniProt Q9LHF5 1-602) MDSSSTKSKISHSRKTNKKSNKKHESNGKQQQQQDVDGGGGCLRSSWICKNASCRANVPKEDSFCKRCSCCVCHNFDENKDPSLWLVCEPEKSDDVEFCGLSCHIECAFREVKVGVIALGNLMKLDGCFCCYSCGKVSQILGCWKKQLVAAKEARRRDGLCYRIDLGYRLLNGTSRFSELHEIVRAAKSMLEDEVGPLDGPTARTDRGIVSRLPVAANVQELCTSAIKKAGELSANAGRDLVPAACRFHFEDIAPKQVTLRLIELPSAVEYDVKGYKLWYFKKGEMPEDDLFVDCSRTERRMVISDLEPCTEYTFRVVSYTEAGIFGHSNAMCFTKSVEILKPVDGKEKRTIDLVGNAQPSDREEKSSISSRFQIGQLGKYVQLAEAQEEGLLEAFYNVDTEKICEPPEEELPPRRPHGFDLNVVSVPDLNEEFTPPDSSGGEDNGVPLNSLAEADGGDHDDNCDDAVSNGRRKNNNDCLVISDGSGDDTGFDFLMTRKRKAISDSNDSENHECDSSSIDDTLEKCVKVIRWLEREGHIKTTFRVRFLTWFSMSSTAQEQSVVSTFVQTLEDDPGSLAGQLVDAFTDVVSTKRPNNGVMTSH
